The record followed here is paper PMC7862700.

What all share (assay): DAPPL (digital affinity profiling via proximity ligation, sequencing)
Common to all, as to conditions: 10 mM Tris-HCl pH 7.5, 50 mM NaCl, 1 mM DTT, 4% glycerol, room temperature, 30 min; GST-TFs on glutathione beads, 16-mer random dsDNA library, 0.1% …; high values mean tight binding; double strand, one strand shown; scale: fold enrichment (6-mer frequency, TF over GST control)

One experiment addresses T1, ELK1 (UniProt P19419).
T1 sequence: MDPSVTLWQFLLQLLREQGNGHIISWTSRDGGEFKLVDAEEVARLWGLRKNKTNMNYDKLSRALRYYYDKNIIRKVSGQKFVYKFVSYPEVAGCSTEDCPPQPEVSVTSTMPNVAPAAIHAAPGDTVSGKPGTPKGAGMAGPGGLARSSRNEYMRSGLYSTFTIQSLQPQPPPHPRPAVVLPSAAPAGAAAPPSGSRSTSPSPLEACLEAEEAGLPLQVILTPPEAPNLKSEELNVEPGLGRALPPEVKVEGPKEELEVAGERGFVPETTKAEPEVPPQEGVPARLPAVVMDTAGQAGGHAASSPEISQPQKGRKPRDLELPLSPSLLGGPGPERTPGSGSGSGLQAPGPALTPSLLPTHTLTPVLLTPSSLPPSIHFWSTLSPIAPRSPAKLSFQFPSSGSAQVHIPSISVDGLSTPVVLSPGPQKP

A further experiment deals with T2, ELK3 (UniProt P41970).
T2 sequence: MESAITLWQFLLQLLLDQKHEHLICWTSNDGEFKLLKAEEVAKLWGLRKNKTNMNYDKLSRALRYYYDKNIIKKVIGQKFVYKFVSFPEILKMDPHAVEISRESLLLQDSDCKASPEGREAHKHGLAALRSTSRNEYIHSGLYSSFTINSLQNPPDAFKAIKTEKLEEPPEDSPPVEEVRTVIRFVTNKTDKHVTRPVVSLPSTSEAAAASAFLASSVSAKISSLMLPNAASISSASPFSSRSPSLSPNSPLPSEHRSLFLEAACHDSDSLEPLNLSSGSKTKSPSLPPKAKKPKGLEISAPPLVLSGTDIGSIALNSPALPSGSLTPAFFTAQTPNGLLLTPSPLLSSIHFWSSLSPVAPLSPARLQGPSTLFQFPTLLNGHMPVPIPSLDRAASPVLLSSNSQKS

A further experiment deals with T3, SPIC (UniProt Q8N5J4).
T3 sequence: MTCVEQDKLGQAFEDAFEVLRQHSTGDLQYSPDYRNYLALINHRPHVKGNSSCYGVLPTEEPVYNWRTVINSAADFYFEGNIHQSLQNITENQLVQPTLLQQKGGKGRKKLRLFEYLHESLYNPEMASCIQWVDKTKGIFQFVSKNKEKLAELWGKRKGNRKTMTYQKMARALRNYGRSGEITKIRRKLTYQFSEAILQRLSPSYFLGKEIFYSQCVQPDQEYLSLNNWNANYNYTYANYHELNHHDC

The next experiment addresses T4, ETS2 (UniProt P15036).
T4 sequence: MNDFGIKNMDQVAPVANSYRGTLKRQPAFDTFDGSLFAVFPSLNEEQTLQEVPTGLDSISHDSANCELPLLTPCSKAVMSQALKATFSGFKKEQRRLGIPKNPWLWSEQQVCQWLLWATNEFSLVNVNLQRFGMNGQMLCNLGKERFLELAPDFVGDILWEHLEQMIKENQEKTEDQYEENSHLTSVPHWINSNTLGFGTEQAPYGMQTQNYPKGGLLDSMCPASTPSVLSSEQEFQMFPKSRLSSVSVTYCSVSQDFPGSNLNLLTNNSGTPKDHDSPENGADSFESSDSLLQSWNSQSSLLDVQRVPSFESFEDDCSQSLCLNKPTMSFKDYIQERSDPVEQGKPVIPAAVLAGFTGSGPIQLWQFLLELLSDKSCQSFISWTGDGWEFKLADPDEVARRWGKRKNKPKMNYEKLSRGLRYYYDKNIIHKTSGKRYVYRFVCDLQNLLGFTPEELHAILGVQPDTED

The target in another experiment is T5, ETV3 (UniProt P41162-2).
T5 sequence: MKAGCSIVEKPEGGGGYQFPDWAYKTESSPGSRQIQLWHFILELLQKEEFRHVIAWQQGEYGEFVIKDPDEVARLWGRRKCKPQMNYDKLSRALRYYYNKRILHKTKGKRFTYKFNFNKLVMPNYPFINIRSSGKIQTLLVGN

The entries are a selection whose mix differs from that of the whole data set. At the low end of the ranking the order means little.

Consider TGGGGG, for which the binding signal with ELK1 is 0.741; in the experiment with ELK3, 0.915; with SPIC, 0.838; with ETS2, 0.761; with ETV3, 0.699.

Regarding TGGGAG, the binding signal was 0.407 with ELK1; 0.422 with ELK3; 0.575 with SPIC; 0.406 with ETS2; 0.425 with ETV3.

As to GTGTGG, the binding signal in the experiment with ELK1 was 0.599; with ELK3, 0.538; in the experiment with SPIC, 0.693; with ETS2, 0.659; with ETV3, 0.62.

CGCATC: the binding signal with ELK1 stood at 0.92; in the experiment with ELK3, 0.979; in the experiment with SPIC, 0.874; with ETS2 it was 0.893; in the experiment with ETV3, 0.892.

Regarding GTATAG, the binding signal with ELK1 was found to be 0.904; with ELK3, 0.961; with SPIC it was 0.921; with ETS2, 0.785; with ETV3, 0.948.

Consider GTAGGC, for which the binding signal was 0.738 with ELK1; 0.698 with ELK3; 0.86 with SPIC; 0.695 in the experiment with ETS2; 0.685 with ETV3.

In the case of GGAGGT, the binding signal with ELK1 was 0.335; in the experiment with ELK3 it was 0.315; with SPIC, 0.288; with ETS2 it was 0.359; in the experiment with ETV3, 0.364.

GACCAC: the binding signal is 0.867 with ELK1; 0.941 with ELK3; 0.808 with SPIC; 0.847 with ETS2; 0.829 in the experiment with ETV3.

On to CAGAGC, for which the binding signal came to 0.829 with ELK1; 0.714 in the experiment with ELK3; 0.898 with SPIC; 0.802 with ETS2; 0.882 in the experiment with ETV3.

In the case of CGGCGC, the binding signal in the experiment with ELK1 is 0.642; with ELK3 it was 0.628; in the experiment with SPIC, 0.707; with ETS2, 0.614; in the experiment with ETV3, 0.687.

Consider GTCGTC, for which the binding signal is 0.759 with ELK1; 0.781 with ELK3; 0.782 with SPIC; 0.764 in the experiment with ETS2; 0.75 with ETV3.

Regarding GTGCAG, the binding signal turned out to be 0.742 with ELK1; 0.743 in the experiment with ELK3; 0.833 with SPIC; 0.813 with ETS2; 0.786 with ETV3.

Consider GCTGGA, for which the binding signal in the experiment with ELK1 was determined as 0.787; with ELK3 it was 0.635; with SPIC, 0.912; in the experiment with ETS2 it was 0.858; with ETV3, 0.834.

As to TTCGGA, the binding signal came out at 0.686 with ELK1; 0.747 in the experiment with ELK3; 0.726 with SPIC; 0.764 with ETS2; 0.755 in the experiment with ETV3.

As for GGAACC, the binding signal amounted to 0.885 in the experiment with ELK1; 0.814 in the experiment with ELK3; 0.864 with SPIC; 0.818 in the experiment with ETS2; 0.861 in the experiment with ETV3.

In the case of GAAGGC, the binding signal was found to be 0.884 in the experiment with ELK1; 0.915 in the experiment with ELK3; 0.928 in the experiment with SPIC; 0.888 in the experiment with ETS2; 0.95 with ETV3.

For the sequence GACAGG, the binding signal was 0.614 in the experiment with ELK1; 0.568 with ELK3; 0.562 in the experiment with SPIC; 0.576 with ETS2; 0.565 with ETV3.

Regarding GTCAAC, the binding signal came to 0.917 with ELK1; 0.943 in the experiment with ELK3; 0.859 in the experiment with SPIC; 0.928 with ETS2; 0.942 with ETV3.

Take GAGCTA: the binding signal was determined as 0.954 with ELK1; 0.837 with ELK3; 0.908 with SPIC; 0.882 with ETS2; 0.896 with ETV3.

In the case of AGTAGG, the binding signal with ELK1 was 0.692; with ELK3, 0.556; with SPIC, 0.728; with ETS2 it was 0.675; with ETV3, 0.698.

For GCGGTT, the binding signal with ELK1 turned out to be 0.762; in the experiment with ELK3, 0.808; with SPIC, 0.823; in the experiment with ETS2, 0.728; with ETV3, 0.752.

With CGTGTG, the binding signal in the experiment with ELK1 is 0.404; in the experiment with ELK3 it was 0.352; with SPIC it was 0.395; with ETS2 it was 0.476; in the experiment with ETV3 it was 0.411.

Consider TCGGGT, for which the binding signal was 0.606 with ELK1; 0.592 in the experiment with ELK3; 0.61 in the experiment with SPIC; 0.605 with ETS2; 0.669 with ETV3.

On to CAGTGA, for which the binding signal in the experiment with ELK1 came out at 0.337; with ELK3, 0.338; with SPIC, 0.336; in the experiment with ETS2, 0.321; in the experiment with ETV3, 0.352.

Turning to CGGTCA, the binding signal was 0.789 with ELK1; 0.817 in the experiment with ELK3; 0.741 with SPIC; 0.848 in the experiment with ETS2; 0.761 with ETV3.

For the sequence GTGCGT, the binding signal with ELK1 was 0.634; with ELK3, 0.631; with SPIC, 0.503; with ETS2 it was 0.657; in the experiment with ETV3 it was 0.582.

With AGGTTA, the binding signal stood at 0.816 in the experiment with ELK1; 0.799 with ELK3; 0.765 in the experiment with SPIC; 0.816 with ETS2; 0.817 in the experiment with ETV3.

In the case of GGAGTG, the binding signal with ELK1 was 0.427; with ELK3, 0.382; in the experiment with SPIC, 0.333; with ETS2, 0.392; in the experiment with ETV3, 0.435.
